We go through one substance from article PMC12411348.

Sequences of proteins named here, by UniProt entry; tags and fusion partners are left off.
UniProt P40337: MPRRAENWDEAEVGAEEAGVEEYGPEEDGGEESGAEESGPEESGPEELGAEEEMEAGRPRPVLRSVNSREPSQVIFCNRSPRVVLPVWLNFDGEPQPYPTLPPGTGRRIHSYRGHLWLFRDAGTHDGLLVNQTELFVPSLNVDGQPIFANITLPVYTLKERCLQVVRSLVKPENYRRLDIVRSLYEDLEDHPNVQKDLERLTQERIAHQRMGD
UniProt P55036: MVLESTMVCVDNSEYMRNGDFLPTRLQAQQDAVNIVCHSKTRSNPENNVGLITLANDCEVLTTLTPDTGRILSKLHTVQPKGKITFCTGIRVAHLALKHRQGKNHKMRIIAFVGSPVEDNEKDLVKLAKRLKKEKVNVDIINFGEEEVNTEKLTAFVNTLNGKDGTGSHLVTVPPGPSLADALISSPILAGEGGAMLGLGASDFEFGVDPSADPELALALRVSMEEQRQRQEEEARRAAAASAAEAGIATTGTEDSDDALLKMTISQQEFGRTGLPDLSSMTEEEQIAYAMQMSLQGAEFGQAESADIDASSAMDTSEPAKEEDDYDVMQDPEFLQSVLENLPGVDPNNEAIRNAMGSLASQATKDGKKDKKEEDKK

These are yes or no findings as the source states them, for the method shown. Binding seen in cells or lysates may run through a third protein. Some binding calls cover weakened binding; strength is not graded here.

One assay has as its target Flag-pVHL (human) (UniProt P40337). Description: co-IP; transfected HEK293T cells; IP lysis buffer (50 mM Tris–HCl pH 7.5, 150 mM NaCl, 1 mM EDTA, 10% glycerol, 1% Triton X-100), antibody overnight at 4 °C, Protein A/G agarose beads, immunoblot.
Assay [1] concerns the target GST-pVHL fusion protein (human) (UniProt P40337). The experiment in a line: pull-down; purified GST-fusion protein on glutathione Sepharose 4B beads incubated with HEK293T cell lysates (transfected or untransfected), overnight at 4 °C, washed with lysis buffer, western blot; only the target purified.

Regarding “endogenous PSMD4 (subunit of the 19S regulatory particle of the 26S proteasome) (from UniProt P55036 1-377)”, the binding entry (in the assay with Flag-pVHL (human); in assay [1]) was “binds” throughout.
